From US20060252053A1 (Dana-Farber, published 2006)

Biological target: T1, recombinant (His)6-caspase-7 polypeptide (UniProt P55210)
T1 sequence: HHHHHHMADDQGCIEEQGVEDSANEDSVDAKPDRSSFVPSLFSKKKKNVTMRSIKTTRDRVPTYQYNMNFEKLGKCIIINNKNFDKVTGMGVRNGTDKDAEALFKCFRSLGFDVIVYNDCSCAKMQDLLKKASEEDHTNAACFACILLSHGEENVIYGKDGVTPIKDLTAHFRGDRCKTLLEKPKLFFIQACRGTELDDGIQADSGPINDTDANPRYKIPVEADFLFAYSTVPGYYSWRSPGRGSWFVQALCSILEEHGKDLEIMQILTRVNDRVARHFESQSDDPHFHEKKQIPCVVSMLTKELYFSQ
Test: GST-Bcl2L12 on GSH beads with increasing amounts of soluble (His)6-caspase-7, Coomassie stain and western blot

- binding: binds
Substance: GST-Bcl2L12 polypeptide

No constants are given. Whether binding was seen depends on the method and setting. Binding calls can cover weak binding; strength is not graded here. Sequences can lack the tags named with a protein.
